Laboratory results as given in patent publication US8945359B2, “Flavin-binding glucose dehydrogenase” (Ikeda Food Research Co., Ltd., priority 2011, dated 2015).
Some results were stated once for a whole list of compounds, not compound by compound.

Assay: Heat stability (residual enzymatic activity)
Format: physicochemical
Details: 100 mM potassium phosphate buffer pH 6.0, 4° C. treatment = 100%

B1: DuGLD: purified enzyme of flavin-binding GLD derived from the genus Dumontinia (Dumontinia tuberosa NBRC30254) (protein, listed as Dumontinia tuberosa)
chain: MNHLLPAFALASLAVASPDLSLTYDYVIVGAGTSGLVIANRLSELNVTVAVIEAGDSGYNNVNVTNPAGYGLAFGTDIDWAYQSTNQKYAGNATQTLRAGKVIGGTSTINGMAYTRAEDVQIDAWAALGNDGWNWENLFPYYKKSQTLQAPTAAQAEAGATYDPSANGFDGPLKVGWLKSLANDDFHIILNDTYASLGIFANEDVNTGRMVGYNRYPVTYDETLNVRHDAGRAYYYPIANRTNLHLYPNTMAQRLTWKSGADVPTANGVEVLTNNSSIPYTISANSEVILSAGALASPLLLELSGIGNPSLLNKYNIPVVVDLPTVGENLQDQTNNGLAYTVSKDASFSGVGTLVTYPSAAQVFGSEIQNISAHVLDSLPSYAAQVSAASGNVTKAADLLEFFKIQHDLIFSTTHPVPMAEILVIPSATGFKSEYWALLPFARGNIHITSSIPGTPAAINPNYYMLDWDITSQITTAKFIRSVYATSPLSTLVGSETKPGLETLSANATEAEWSEWIKAGYRPNFHPVSTAAMMPREVGGVVDSRLKVYGTSNVRVVDASVLPMQVSGHLVSTLYAVAERAADLIKEDI
modifications: CDS (1)..(1770); sig_peptide (1)..(57)
35° C. for 15 minutes
  residual activity after heat treatment: ≥ 90%
40° C. for 15 minutes
  residual activity after heat treatment: ≥ 70%
45° C. for 15 minutes
  residual activity after heat treatment: ≥ 30%
